Laboratory results taken from PubChem BioAssay AID485314 (National Center for Advancing Translational Sciences (NCATS), 2010).
The whole screen tested about 340,000 compounds, of which about 4,500 (1.3%) were called active. Inconclusive means that the source gave no clear call. Such entries were picked first, then a sample of the others. Calls follow the shape of the dose curve; as a rule, active = well fitted inhibition curve with a large enough effect; inconclusive = small, poorly fitted or top-dose-only effect, or another doubt; inactive = no such curve, though single readings can be large or run the other way. Potencies of inconclusive entries are doubtful fits and often do not repeat.

Molecular target: DNA polymerase beta (Homo sapiens) (UniProt P06746)
Assay: qHTS Assay for Inhibitors of DNA Polymerase Beta
Conditions: Pol beta primer extension/strand displacement, fluorescence kinetic; activity change, negative = inhibition: at 114 µM (top of the series)
Summary of the method: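 Human Pol beta at 10 nM; strand-displacement substrate 50 nM final. Compound exposure 15 min at room temperature before start, reaction 10 min at room temperature.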
% is scaled to controls: 0 for no effect and ±100 for the full control effect; potency is read from the fitted curve at half-maximal effect.

**Q.** For `Cc1nc2nc(SCC(=O)NCc3ccco3)nn2c(C)c1Cc1ccccc1`, which Potency is on record?
**A.** inconclusive: 20 µM [inhibitor, full curve]

**Q.** With `O=C(NCc1ccccn1)c1ccc(-c2ccccc2)cc1` as the compound, how does the Potency read?
**A.** inconclusive: 89.1 µM [inhibitor, single point]

**Q.** With `COc1ccc2[nH]c(C(=O)N/N=C/c3ccc(O)cc3O)cc2c1` as the compound, how does the Potency read?
**A.** inconclusive: 70.8 µM [inhibitor, single point]

**Q.** With `COc1ccc(-n2cnnc2SCC(=O)c2cc(C)n(Cc3cccs3)c2C)cc1` as the compound, how does the Potency read?
**A.** inconclusive: 22.4 µM [inhibitor, full curve, poor fit]

**Q.** How did the Potency turn out when `CC(C)Cn1[nH]c2c3c(ccc2c1=O)C(=O)c1ccccc1C3=O` was run?
**A.** inconclusive: 0.1 µM [inhibitor, full curve, poor fit]

**Q.** `O=c1cc(O)c2sc3nc(-c4cccnc4)cc(C(F)(F)F)c3c2[nH]1` was tested. Which Potency did it give?
**A.** active: 12.6 µM

**Q.** For `CCN(CC)CCOc1ncnc2c1oc1ccccc12`, which Potency is on record?
**A.** inconclusive: 79.4 µM [inhibitor, single point]

**Q.** `O=C(/C=C/c1ccco1)Nc1ccc(Cl)c(S(=O)(=O)N2CCOCC2)c1` was tested. Which Potency did it give?
**A.** inactive

**Q.** How did the Potency turn out when `COc1ccc(Cc2nnc(SCC(=O)N3CCCCC3)o2)cc1` was run?
**A.** inconclusive: 4.47 µM [inhibitor, full curve]

**Q.** How did the Potency turn out when `COc1ccc(-n2nc(C(=O)Nc3cccc(C(F)(F)F)c3)c3c4ccccc4n(C)c3c2=O)cc1` was run?
**A.** inconclusive: 89.1 µM [inhibitor, single point]

**Q.** Which Potency does the source give for `CC1CN(C(=O)CCC(=O)NC2CCN(Cc3ccccc3)CC2)c2ccccc2O1` (stereo not drawn) here?
**A.** inconclusive: 0.112 µM [inhibitor, full curve, poor fit]

**Q.** Which Potency does the source give for `CS(=O)(=O)Nc1ccc(C2=NN(C(=O)C3CCCCC3)C(c3cccs3)C2)cc1` (stereo not drawn) here?
**A.** inactive

**Q.** How did the Potency turn out when `COC(=O)C1=C(C)N(c2cc(C)cc(C)c2)/C(=C/c2ccco2)C1=O` was run?
**A.** inconclusive: 10 µM [inhibitor, partial curve, poor fit]

**Q.** `S=c1[nH]nc(-c2cc(-c3ccccc3)n[nH]2)n1/N=C/c1c2ccccc2cc2ccccc12` was tested. Which activity change, negative = inhibition did it give?
**A.** inconclusive: -85.3% [inhibitor]

**Q.** How did the Potency turn out when `N#Cc1ccc(OS(=O)(=O)c2ccc(-c3ccon3)s2)cc1` was run?
**A.** inconclusive: 39.8 µM [inhibitor, partial curve]

**Q.** `O=S(=O)(NCc1cccc(Br)c1)c1ccc(-c2cc(C(F)(F)F)on2)s1` was tested. Which Potency did it give?
**A.** inconclusive: 70.8 µM [inhibitor, single point]

**Q.** `Cc1cc2c(n1-c1ccc(C(=O)O)cc1)CCCCC2` was tested. Which Potency did it give?
**A.** active: 2.51 µM

**Q.** How did the Potency turn out when `Fc1cccc(/C=N/Nc2ccc(Cl)nn2)c1` was run?
**A.** inactive

**Q.** `OCCNc1nc(Nc2ccc(Cl)c(Cl)c2)nc2ccccc12` was tested. Which Potency did it give?
**A.** inconclusive: 100 µM [inhibitor, single point]

**Q.** Which Potency does the source give for `COC(=O)C(C)Sc1nnc(-c2ccncc2)o1` (stereo not drawn) here?
**A.** inconclusive: 100 µM [inhibitor, single point]

**Q.** With `O=S(=O)(c1ccc(Cl)cc1)N1CCC2(CC1)OCCO2` as the compound, how does the Potency read?
**A.** inconclusive: 14.1 µM [inhibitor, single point]

**Q.** For `COC(=O)c1ccc(C2NC(=O)CCC2[N+](=O)[O-])cc1` (stereo not drawn), which Potency is on record?
**A.** inconclusive: 10 µM [inhibitor, partial curve, poor fit]

**Q.** Which Potency does the source give for `Cn1c2c(c(=O)[nH]c1=O)C(c1cccc(O)c1)C1=C(N2)c2ccccc2C1=O` (stereo not drawn) here?
**A.** inconclusive: 50.1 µM [inhibitor, partial curve]

**Q.** `COC(=O)c1sc(NC(=O)c2c(C)noc2C)nc1C` was tested. Which Potency did it give?
**A.** inconclusive: 0.316 µM [inhibitor, full curve, poor fit]

**Q.** With `CC(=O)Oc1cccc(/C=c2\sc3nc(-c4ccco4)nn3c2=O)c1` as the compound, how does the Potency read?
**A.** active: 22.4 µM

**Q.** Which Potency does the source give for `Cc1ccc(C(=O)Nc2c(C(=O)NCc3ccc(Cl)cc3)sc3nc(C)cc(C)c23)cc1` here?
**A.** inactive

**Q.** How did the Potency turn out when `CCCCc1nnc(NC(=O)c2nc3nccc(C)n3n2)s1` was run?
**A.** inconclusive: 25.1 µM [inhibitor, full curve, poor fit]

**Q.** With `CC(=O)Oc1ccc(-c2cccc(C(=O)N3CCCCC3)c2)cc1` as the compound, how does the Potency read?
**A.** inconclusive: 3.55 µM [inhibitor, single point]

**Q.** How did the Potency turn out when `Cc1ccc(-c2cc(C(=O)N/N=C/c3ccco3)[nH]n2)cc1` was run?
**A.** inconclusive: 31.6 µM [inhibitor, full curve]

**Q.** `O=C1C(=O)N(C2CCN(S(=O)(=O)c3ccc(F)cc3)CC2)CCN1Cc1ccccc1` was tested. Which Potency did it give?
**A.** inactive

**Q.** With `COC(=O)c1ccccc1NC(=O)C1CCN(C(=O)N2CCOc3ccccc32)CC1` as the compound, how does the Potency read?
**A.** active: 89.1 µM

**Q.** `COc1cccc(NC(=O)CSc2nc3ccccc3nc2N2CCOCC2)c1` was tested. Which Potency did it give?
**A.** inconclusive: 56.2 µM [inhibitor, single point]

**Q.** How did the Potency turn out when `CC(C)COc1nc2ccccc2nc1N1CCN(C)CC1` was run?
**A.** inconclusive: 70.8 µM [inhibitor, single point]

**Q.** Which activity change, negative = inhibition does the source give for `O=C(CSc1nc2ccccc2c(=O)n1Cc1ccccc1)Nc1ccc(Br)cc1C(=O)O` here?
**A.** inconclusive: -46.5% [inhibitor]

**Q.** With `CCC(C(=O)Nc1cc(OC)cc(OC)c1)n1nc(-c2ccc(C)c(C)c2)ccc1=O` (stereo not drawn) as the compound, how does the Potency read?
**A.** inconclusive: 70.8 µM [inhibitor, single point]

**Q.** How did the Potency turn out when `CCOc1ccccc1N1CCN(CC(=O)NCCc2ccc(S(N)(=O)=O)cc2)CC1` was run?
**A.** inconclusive: 89.1 µM [inhibitor, single point]

**Q.** How did the Potency turn out when `Cc1ccc2nc(NC(=O)CSCC(=O)OCC(=O)c3ccc(Br)cc3)sc2c1` was run?
**A.** inconclusive: 1.41 µM [inhibitor, full curve]

**Q.** For `CCOc1[nH]n(-c2ccccc2)c(=O)c1C=Nc1ccc(OC)cc1`, which Potency is on record?
**A.** inconclusive: 20 µM [inhibitor, full curve, poor fit]

**Q.** With `C=C(C)C(=O)N1CC2(CC(c3cccc(NC(=O)/C=C\C)c3)=NO2)C[C@H]1C(N)=O` (stereo partly drawn) as the compound, how does the Potency read?
**A.** inactive

**Q.** How did the Potency turn out when `O=c1c2ccccc2n(Cc2cccc(F)c2)c(=O)n1C1CCCC1` was run?
**A.** inconclusive: 89.1 µM [inhibitor, single point]

**Q.** `CCCC1=Nc2cc(C(=O)NCc3ccc(OC)cc3)ccc2Sc2ccc(C)cc21` was tested. Which Potency did it give?
**A.** inactive

**Q.** `Fc1cccc(-n2ncc3c2ncn2nc(COc4ccc(Cl)cc4)nc32)c1` was tested. Which Potency did it give?
**A.** inactive

**Q.** `Cc1ccc(C(=O)CN2CCN(c3ccccn3)CC2)c(C)c1` was tested. Which Potency did it give?
**A.** inconclusive: 89.1 µM [inhibitor, single point]

**Q.** With `CC(C)CC[n+]1ccn(-c2nc3ccccc3nc2[N-]S(=O)(=O)c2ccccc2)c1` as the compound, how does the Potency read?
**A.** active: 79.4 µM

**Q.** `CSc1nc(N2CCOCC2)c2c3c(sc2n1)CCC3` was tested. Which Potency did it give?
**A.** inconclusive: 10 µM [inhibitor, full curve]

**Q.** For `CCOC(=O)C(CC)Sc1nc2c(c(=O)[nH]c(=O)n2C)n1CCc1ccccc1` (stereo not drawn), which Potency is on record?
**A.** inconclusive: 0.447 µM [inhibitor, full curve, poor fit]

**Q.** Which Potency does the source give for `Cc1cc(-c2ccc(C)c(S(=O)(=O)N3CCN(c4cccc(C(F)(F)F)c4)CC3)c2)on1` here?
**A.** inactive

**Q.** Which Potency does the source give for `Cc1nc(NS(=O)(=O)c2ccc(Cl)s2)c2c3c(sc2n1)CCCC3` here?
**A.** inactive

**Q.** For `O=C(O)C1CC(=O)N(C2CCCCCC2)C1` (stereo not drawn), which Potency is on record?
**A.** inconclusive: 79.4 µM [inhibitor, single point]

**Q.** How did the Potency turn out when `O=S(=O)(NCC1CCCO1)c1cc(Cl)ccc1Cl` (stereo not drawn) was run?
**A.** inactive

**Q.** For `CC(/C=N/NC(=O)Cc1cccn1C)=C\c1ccco1`, which Potency is on record?
**A.** inconclusive: 20 µM [inhibitor, partial curve, poor fit]

**Q.** Which Potency does the source give for `CCc1c(C)nc2cc(-c3ccc(Cl)cc3)[nH]n2c1=O` here?
**A.** inactive

**Q.** For `CC1CCCCN1CC(=O)Nc1sccc1C#N` (stereo not drawn), which Potency is on record?
**A.** inconclusive: 28.2 µM [inhibitor, single point]

**Q.** Which Potency does the source give for `c1ccc(C(c2nnnn2C2CCCCC2)N2CCc3ccccc3C2)nc1` (stereo not drawn) here?
**A.** inactive

**Q.** For `C=CCOc1c(Br)cc(/C=N/Nc2ccc(C(=O)O)cc2)cc1OCC`, which Potency is on record?
**A.** inconclusive: 89.1 µM [inhibitor, single point]

**Q.** Which Potency does the source give for `CCCOc1ccc(-c2cc(C(=O)NCC3CCCO3)c3ccccc3n2)cc1` (stereo not drawn) here?
**A.** inconclusive: 17.8 µM [inhibitor, single point]

**Q.** With `COc1cc(C(=O)NC2=NCCS2)ccc1OCc1c(C)noc1C` as the compound, how does the Potency read?
**A.** inconclusive: 100 µM [inhibitor, single point]

**Q.** Which Potency does the source give for `O=C(O)c1ccc(S(=O)(=O)c2ccccc2C(=O)O)c([N+](=O)[O-])c1` here?
**A.** inconclusive: 100 µM [inhibitor, single point]

**Q.** For `CCOC(=O)c1csc(NC(=O)CSc2nnc(C3CC3)n2C)n1`, which Potency is on record?
**A.** inactive

**Q.** How did the Potency turn out when `O=C1OCCC1Sc1nc2ccccc2s1` (stereo not drawn) was run?
**A.** inconclusive: 89.1 µM [inhibitor, single point]

**Q.** With `Cc1oc2cc([N+](=O)[O-])c(O)c([N+](=O)[O-])c2c1C(=O)c1ccc(Cl)cc1` as the compound, how does the Potency read?
**A.** inconclusive: 25.1 µM [inhibitor, partial curve]

**Q.** Which Potency does the source give for `Cc1ccc(S(=O)(=O)Nc2c(C)[nH]c(=O)[nH]c2=O)cc1C` here?
**A.** inconclusive: 89.1 µM [inhibitor, single point]

**Q.** With `Cc1ccc(-c2nnc(Nc3cccc(O)c3)c3ccccc23)cc1S(=O)(=O)N1CCOCC1` as the compound, how does the activity change, negative = inhibition read?
**A.** inconclusive: -34.5% [inhibitor]

**Q.** With `Cc1noc(C)c1COC(=O)[C@H](C)NS(=O)(=O)c1ccc(Cl)c(Cl)c1` as the compound, how does the Potency read?
**A.** inactive

**Q.** Which Potency does the source give for `CCc1ccc(NC(=O)CCn2nc(-c3ccccc3OC)c3c(C)cc(C)nc32)cc1` here?
**A.** inconclusive: 89.1 µM [inhibitor, single point]

**Q.** For `CC(C)Cc1ccc(-c2cc(=O)[nH][nH]2)cc1`, which Potency is on record?
**A.** inconclusive: 0.224 µM [inhibitor, full curve, poor fit]

**Q.** Which Potency does the source give for `Cn1c(=O)c2c(nc(NCc3ccco3)n2Cc2ccc(Cl)cc2Cl)n(C)c1=O` here?
**A.** inconclusive: 25.1 µM [inhibitor, full curve, poor fit]

**Q.** How did the Potency turn out when `Cc1ccc(CN(C)C(=O)CCc2nc3sc4c(c3c(=O)[nH]2)CCCC4)o1` was run?
**A.** active: 25.1 µM
